Patent US20190375855A1 (Memorial Sloan Kettering, published 2019)
Results are given in words; binding and its absence hold for the method and conditions named. Some entries that bind do so weakly or less than the wild type.

How the values were obtained:
[1] = biological target: Trp1 as expressed by B16 melanoma cells (UniProt P07147); assay: flow cytometry on permeabilized B16 melanoma cells, anti-mouse IgG PE detection
[2] = biological target: Trp1 as expressed by B16 melanoma cells (UniProt P07147); assay: flow cytometry on permeabilized B16 cells, detection with anti-mouse IgG PE

binding [1]: binds | binding [2]: binds
B1: murine monoclonal antibody TA99 (antibody, V domains shown)
VH: EVQLQQSGAELVRPGALVKLSCKTSGFNIKDYFLHWVRQRPDQGLEWIGWINPDNGNTVYDPKFQGTASLTADTSSNTVYLQLSGLTSEDTAVYFCTRRDYTYEKAALDYWGQGASVIVSS
VL: AFQMSQSPASLSASVGETVTITCRASGNIYNYLAWYQQKQGKSPHLLVYDAKTLADGVPSRFSGSGSGTQYSLKISSLQTEDSGNYYCQHFWSLPFTFGSGTKLEIKA
